Where a name gives a salt, the structure may show the parent alone. The list shows a part of the results. This data set is noisy: repeats of one test often differ as much as different tests do.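 ReNCell VM, a human fetal ventral-midbrain neural progenitor line, was differentiated without mitogens. Blinded raters scored images stained for doublecortin (early neurons) or tyrosine hydroxylase (dopaminergic neurons) against untreated wells (0 = no change). Scores were averaged across repeats and both raters, and compounds averaging 2 or more were selected as hits for retesting.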
Test system: ReNCell VM
Test: dopaminergic neuron differentiation score (TH+ cell fraction vs untreated, manual image score) (score (0 to 3)); higher = more TH+ dopaminergic neuron differentiation
Conditions: library: Spectrum; 2 uM; 4 weeks; BDNF 10 ng/ml + GDNF 10 ng/ml

Dopaminergic neuron differentiation score, inactive:
CC(C)NCC(O)c1ccc(NS(C)(=O)=O)cc1 (centres undefined) 0, CCc1cc(C(N)=S)ccn1 0, C[N+](C)(C)CCO.[Cl-] 0, CC(C(=O)O)c1cccc(Oc2ccccc2)c1 (centres undefined) 0, COc1cc(O)c(C(C)=O)c(O)c1 1, COc1c(O)cc2c(c1O)[C@@H]1O[C@H](CO)[C@@H](O)[C@H](O)[C@H]1OC2=O 0, NCCCCN 0, O=C[C@H](O)[C@H](O)CO 0, O=C1CC(c2ccc(O)cc2)Oc2ccccc21 (centres undefined) 0, NC1CCN(c2c(F)cc3c(=O)c(C(=O)O)cn(C4CC4)c3c2Cl)C1 (centres undefined) 0, CC(C)NCC(O)COc1cccc2[nH]ccc12 (centres undefined) 0, COC(=O)c1c(C)cc(OC(=O)c2c(C)cc(O)c(C=O)c2O)c(C)c1O 0, NC(=O)NO 0, C[n+]1ccccc1C=NO 0, CO[C@H]1/C=C/O[C@@]2(C)Oc3c(C)c(O)c4c(O)c(c5c(nc6cc(C)ccn65)c4c3C2=O)NC(=O)/C(C)=C\C=C\[C@H](C)[C@H](O)[C@@H](C)[C@@H](O)[C@@H](C)[C@H](OC(C)=O)[C@@H]1C 0, CN[C@H]1CC[C@@H](c2ccc(Cl)c(Cl)c2)c2ccccc21 0, CC(=O)Oc1cc(OC(C)=O)c2c(c1)O[C@H](c1ccc(OC(C)=O)c(OC(C)=O)c1)[C@H](OC(C)=O)C2 0, CCCC(=O)Nc1ccc(OCC(O)CNC(C)C)c(C(C)=O)c1 (centres undefined) 0, CC(=O)O[C@@H]1C[C@H]2C(C)(C)C(=O)CC[C@]2(C)[C@H]2CC[C@@]3(C)[C@H](c4ccoc4)OC(=O)[C@H]4O[C@]43[C@@]21C 0, CC1(C)[C@H]2CC[C@]1(CS(=O)(=O)O)C(=O)C2=Cc1ccc(C=C2C(=O)[C@@]3(CS(=O)(=O)O)CC[C@@H]2C3(C)C)cc1 0

Same assay, conditions: library: Tocriscreen; 2 uM; 4 weeks; BDNF 10 ng/ml + GDNF 10 ng/ml

Dopaminergic neuron differentiation score, inactive:
Cc1ccc(/C(=C\CN2CCCC2)c2ccccn2)cc1 [trans-Triprolidine hydrochloride] 0, O=C(O)c1ccccc1Nc1cccc(OCc2ccc3ccccc3n2)c1 [SR 2640 hydrochloride] 0, CCCCCCCCCCC[C@@H](C[C@@H]1OC(=O)[C@H]1CCCCCC)OC(=O)[C@H](CC(C)C)NC=O [Orlistat] 0, CCCCNC(=O)[C@@H]1Cc2ccccc2N1C(=O)[C@@H](N)CC [Butabindide oxalate] 0

— the supplement of paper PMC4635364
